Some targets named below: GST-Rab18Q67L (UniProt Q9NP72); GST-Rab18 (wild type) (UniProt Q9NP72); GST-Rab18S22N (UniProt Q9NP72).
What all share (assay): pull-down; GST-tagged Rab18 (WT, Q67L, S22N) incubated with mouse brain lysates; bound proteins immunoblotted; only the target purified
For orientation: In western blotting, separated proteins are transferred to a membrane and probed.

Amino acid sequences for entries named in this document (tags omitted). A change or cut given only in a name is not applied to a line headed by its entry.
UniProt Q9NP72: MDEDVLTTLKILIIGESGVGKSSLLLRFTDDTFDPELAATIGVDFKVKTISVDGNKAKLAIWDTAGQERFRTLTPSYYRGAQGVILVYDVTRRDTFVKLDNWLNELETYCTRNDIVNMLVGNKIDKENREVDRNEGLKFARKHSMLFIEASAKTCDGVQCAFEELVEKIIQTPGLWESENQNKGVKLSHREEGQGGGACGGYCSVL
UniProt P33175: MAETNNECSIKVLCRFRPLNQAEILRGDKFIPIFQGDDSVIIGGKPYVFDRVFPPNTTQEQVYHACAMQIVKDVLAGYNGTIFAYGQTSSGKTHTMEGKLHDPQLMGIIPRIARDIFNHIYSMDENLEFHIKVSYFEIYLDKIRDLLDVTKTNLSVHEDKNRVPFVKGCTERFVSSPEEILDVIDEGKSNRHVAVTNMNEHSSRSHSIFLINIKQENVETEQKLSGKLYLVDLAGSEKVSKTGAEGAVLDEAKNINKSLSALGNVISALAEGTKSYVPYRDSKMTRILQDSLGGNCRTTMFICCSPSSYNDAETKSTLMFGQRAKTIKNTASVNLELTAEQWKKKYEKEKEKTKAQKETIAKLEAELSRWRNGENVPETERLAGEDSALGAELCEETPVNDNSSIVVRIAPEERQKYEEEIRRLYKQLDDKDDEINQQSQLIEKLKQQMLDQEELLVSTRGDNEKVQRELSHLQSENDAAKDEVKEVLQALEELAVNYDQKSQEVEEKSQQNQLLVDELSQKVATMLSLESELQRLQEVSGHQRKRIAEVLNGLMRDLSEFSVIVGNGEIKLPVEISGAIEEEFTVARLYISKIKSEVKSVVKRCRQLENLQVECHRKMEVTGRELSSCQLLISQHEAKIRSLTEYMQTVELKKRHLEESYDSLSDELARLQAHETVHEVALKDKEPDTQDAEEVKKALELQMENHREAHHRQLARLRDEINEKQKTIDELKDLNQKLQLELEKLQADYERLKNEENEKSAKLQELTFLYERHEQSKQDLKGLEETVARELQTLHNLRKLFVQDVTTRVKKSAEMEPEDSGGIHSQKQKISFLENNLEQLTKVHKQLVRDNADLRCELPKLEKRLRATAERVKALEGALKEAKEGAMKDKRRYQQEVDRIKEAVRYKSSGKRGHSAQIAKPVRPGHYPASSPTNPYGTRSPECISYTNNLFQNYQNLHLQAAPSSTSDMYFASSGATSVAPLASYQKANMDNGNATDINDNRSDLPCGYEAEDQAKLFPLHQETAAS

Results are given in words; binding and its absence hold for the method and conditions named. Binding seen in cells or lysates may run through a third protein. Some results given as binding are weak or reduced against the parent protein; the word gives no strength.

As to “kinesin-1 motor protein KIF5 (KIF5A) (from UniProt P33175 1-1027)”, the binding result with GST-Rab18Q67L and with GST-Rab18 (wild type) was “binds” each time.

B1: neutral sphingomyelinase 2 (nSMase2) (enzyme, UniProt Q9JJY3 1-655)
chain: MVLYTTPFPNSCLSALHAVSWALIFPCYWLVDRLLASFIPTTYEKRQRADDPCCLQLFCTVLFTPVYLALLVAALPFAFLGFIFWSPLQSARRPYSYSRLEDKNPAGGAALLSEWKGTGAGKSFCFATANVCLLPDSLARLNNVFNTQARAKEIGQRIRNGAARPQIKIYIDSPTNTSISAASFSSLVSPQGGDGSRAVPGSIKRTASVEYKGDGGRHPSDEAANGPASGEQADGSLEDSCIVRIGGEEGGRPQEADDPAAGSQARNGAGGTPKGQTPNHNQRDGDSGSLGSPSASRESLVKARAGQDSGGSGEPGANSKLLYKTSVVKKAAARRRRHPDEAFDHEVSAFFPANLDFLCLQEVFDKRAAAKLKEQLHGYFEYILYDVGVYGCHGCCNFKCLNSGLFFASRYPVMDVAYHCYPNGCSFDALASKGALFLKVQVGSTPQDQRIVGYIACTHLHAPPEDSAVRCEQLDLLQDWLADFRKSTSSTSTANPEELVVFDVICGDLNFDNCSSDDKLEQQHSLFTRYKDPCRLGPGEEKPWAIGTLLDTNGLYDEDVCTPDNLQKVLESEEGRREYLAFPTSKSPGAGQKGRKDLLKGNGRRIDYMLHAEEGLCPDWKAEVEEFSFITQLSGLTDHLPVAMRLMVSAGEEEA
Take B1: the binding entry with GST-Rab18S22N is recorded as “binds”.

Values taken from publication PMC12848524.
